Results on 31 targets are retold here after the supplement of paper PMC10849652.

Amino acid sequences for entries named in this document (tags omitted). A change or cut given only in a name is not applied to a line headed by its entry.
UniProt Q86VQ3: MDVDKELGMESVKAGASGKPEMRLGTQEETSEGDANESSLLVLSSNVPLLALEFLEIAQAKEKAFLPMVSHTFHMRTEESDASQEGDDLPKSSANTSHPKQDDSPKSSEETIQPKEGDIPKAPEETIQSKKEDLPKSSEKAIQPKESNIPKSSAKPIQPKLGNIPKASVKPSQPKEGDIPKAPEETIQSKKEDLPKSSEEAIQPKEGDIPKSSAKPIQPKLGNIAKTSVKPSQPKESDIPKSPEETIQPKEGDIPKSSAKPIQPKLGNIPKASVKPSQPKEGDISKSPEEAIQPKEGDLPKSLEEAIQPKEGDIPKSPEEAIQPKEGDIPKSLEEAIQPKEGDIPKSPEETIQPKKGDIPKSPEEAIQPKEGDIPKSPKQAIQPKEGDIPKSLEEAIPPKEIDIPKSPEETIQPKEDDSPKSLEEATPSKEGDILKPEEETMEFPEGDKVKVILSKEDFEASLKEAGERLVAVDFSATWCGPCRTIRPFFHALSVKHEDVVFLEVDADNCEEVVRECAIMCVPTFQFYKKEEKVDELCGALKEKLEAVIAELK
UniProt A6NNZ2, whole entry, looked up: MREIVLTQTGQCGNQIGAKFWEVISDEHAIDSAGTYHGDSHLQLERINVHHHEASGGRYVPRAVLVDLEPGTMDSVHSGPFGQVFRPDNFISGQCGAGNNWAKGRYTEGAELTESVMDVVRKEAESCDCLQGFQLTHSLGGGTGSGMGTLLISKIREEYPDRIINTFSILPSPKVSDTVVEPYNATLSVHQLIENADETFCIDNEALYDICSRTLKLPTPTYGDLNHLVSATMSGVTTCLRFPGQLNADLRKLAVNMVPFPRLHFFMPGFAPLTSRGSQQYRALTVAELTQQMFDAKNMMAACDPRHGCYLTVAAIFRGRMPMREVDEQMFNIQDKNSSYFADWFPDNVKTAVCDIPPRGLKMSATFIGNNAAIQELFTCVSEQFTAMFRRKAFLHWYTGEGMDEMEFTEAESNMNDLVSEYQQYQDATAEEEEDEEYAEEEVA
UniProt Q06418: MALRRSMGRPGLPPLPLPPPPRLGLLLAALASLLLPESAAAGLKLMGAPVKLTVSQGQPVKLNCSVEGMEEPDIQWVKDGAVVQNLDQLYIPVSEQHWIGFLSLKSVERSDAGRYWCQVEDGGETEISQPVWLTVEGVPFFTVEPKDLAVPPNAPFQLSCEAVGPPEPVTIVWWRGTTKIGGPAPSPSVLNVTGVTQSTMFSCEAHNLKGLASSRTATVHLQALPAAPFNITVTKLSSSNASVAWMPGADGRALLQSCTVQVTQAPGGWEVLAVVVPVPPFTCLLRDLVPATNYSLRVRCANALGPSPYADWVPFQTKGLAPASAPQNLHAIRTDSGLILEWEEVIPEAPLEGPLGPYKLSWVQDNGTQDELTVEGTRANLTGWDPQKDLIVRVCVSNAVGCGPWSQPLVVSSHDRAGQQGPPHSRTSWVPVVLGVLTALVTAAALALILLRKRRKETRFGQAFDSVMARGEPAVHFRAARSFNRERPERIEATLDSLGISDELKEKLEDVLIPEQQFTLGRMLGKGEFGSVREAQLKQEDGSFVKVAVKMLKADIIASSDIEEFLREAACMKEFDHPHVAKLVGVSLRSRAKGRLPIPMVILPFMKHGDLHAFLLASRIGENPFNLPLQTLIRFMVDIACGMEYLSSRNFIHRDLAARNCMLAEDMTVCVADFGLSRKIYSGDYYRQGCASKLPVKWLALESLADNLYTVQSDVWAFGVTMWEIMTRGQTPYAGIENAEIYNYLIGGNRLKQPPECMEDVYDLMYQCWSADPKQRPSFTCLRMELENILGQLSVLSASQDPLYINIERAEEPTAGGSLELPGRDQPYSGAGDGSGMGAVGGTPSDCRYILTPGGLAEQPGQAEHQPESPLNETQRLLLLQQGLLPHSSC
UBE2L5, A0A1B0GUS4, UniProt A0A1B0GUS4, whole entry, looked up: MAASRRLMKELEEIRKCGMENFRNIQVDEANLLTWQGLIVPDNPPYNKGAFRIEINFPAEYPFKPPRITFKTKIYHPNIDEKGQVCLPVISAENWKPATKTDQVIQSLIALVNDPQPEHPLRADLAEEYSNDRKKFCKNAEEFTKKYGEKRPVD
UniProt Q9NY65, whole entry, looked up: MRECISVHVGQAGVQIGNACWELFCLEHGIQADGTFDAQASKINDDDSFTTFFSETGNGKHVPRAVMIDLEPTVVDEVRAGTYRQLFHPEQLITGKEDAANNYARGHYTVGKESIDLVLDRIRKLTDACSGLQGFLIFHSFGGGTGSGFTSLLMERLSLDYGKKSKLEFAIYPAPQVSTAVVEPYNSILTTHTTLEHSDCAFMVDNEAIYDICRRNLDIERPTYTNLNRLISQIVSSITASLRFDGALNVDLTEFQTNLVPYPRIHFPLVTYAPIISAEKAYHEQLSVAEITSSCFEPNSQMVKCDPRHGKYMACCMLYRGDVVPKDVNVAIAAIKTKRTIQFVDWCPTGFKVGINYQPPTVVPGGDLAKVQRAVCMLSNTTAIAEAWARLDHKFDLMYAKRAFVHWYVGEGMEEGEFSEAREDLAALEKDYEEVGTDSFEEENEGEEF
UniProt Q96RT8, whole entry, looked up: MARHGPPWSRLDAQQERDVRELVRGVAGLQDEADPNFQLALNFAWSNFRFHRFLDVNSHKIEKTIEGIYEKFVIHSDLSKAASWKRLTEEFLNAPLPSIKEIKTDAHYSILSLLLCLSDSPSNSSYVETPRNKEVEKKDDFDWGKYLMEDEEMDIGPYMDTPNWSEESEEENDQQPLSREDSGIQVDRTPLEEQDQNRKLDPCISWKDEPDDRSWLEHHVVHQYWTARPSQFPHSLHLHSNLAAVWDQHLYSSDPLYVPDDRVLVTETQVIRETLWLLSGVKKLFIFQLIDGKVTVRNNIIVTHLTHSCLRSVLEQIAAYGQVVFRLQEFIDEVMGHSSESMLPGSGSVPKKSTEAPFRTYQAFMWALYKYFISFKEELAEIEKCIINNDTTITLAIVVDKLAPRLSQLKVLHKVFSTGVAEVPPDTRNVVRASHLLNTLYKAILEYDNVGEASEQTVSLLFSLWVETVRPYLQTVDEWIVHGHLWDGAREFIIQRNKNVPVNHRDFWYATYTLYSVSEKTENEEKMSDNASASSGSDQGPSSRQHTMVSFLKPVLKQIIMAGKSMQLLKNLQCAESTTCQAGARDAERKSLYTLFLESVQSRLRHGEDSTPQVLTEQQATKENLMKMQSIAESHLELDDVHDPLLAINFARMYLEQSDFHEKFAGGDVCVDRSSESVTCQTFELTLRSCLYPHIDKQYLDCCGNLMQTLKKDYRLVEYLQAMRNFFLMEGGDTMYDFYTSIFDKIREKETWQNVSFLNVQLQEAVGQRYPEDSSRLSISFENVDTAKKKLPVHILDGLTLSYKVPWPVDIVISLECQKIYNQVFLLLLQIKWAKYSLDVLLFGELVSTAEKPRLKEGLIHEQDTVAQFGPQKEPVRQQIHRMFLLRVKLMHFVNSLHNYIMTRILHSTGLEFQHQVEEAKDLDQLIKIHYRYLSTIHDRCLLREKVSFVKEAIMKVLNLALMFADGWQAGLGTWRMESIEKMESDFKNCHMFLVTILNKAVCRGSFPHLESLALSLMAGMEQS
UniProt Q6ZU65, whole entry, looked up: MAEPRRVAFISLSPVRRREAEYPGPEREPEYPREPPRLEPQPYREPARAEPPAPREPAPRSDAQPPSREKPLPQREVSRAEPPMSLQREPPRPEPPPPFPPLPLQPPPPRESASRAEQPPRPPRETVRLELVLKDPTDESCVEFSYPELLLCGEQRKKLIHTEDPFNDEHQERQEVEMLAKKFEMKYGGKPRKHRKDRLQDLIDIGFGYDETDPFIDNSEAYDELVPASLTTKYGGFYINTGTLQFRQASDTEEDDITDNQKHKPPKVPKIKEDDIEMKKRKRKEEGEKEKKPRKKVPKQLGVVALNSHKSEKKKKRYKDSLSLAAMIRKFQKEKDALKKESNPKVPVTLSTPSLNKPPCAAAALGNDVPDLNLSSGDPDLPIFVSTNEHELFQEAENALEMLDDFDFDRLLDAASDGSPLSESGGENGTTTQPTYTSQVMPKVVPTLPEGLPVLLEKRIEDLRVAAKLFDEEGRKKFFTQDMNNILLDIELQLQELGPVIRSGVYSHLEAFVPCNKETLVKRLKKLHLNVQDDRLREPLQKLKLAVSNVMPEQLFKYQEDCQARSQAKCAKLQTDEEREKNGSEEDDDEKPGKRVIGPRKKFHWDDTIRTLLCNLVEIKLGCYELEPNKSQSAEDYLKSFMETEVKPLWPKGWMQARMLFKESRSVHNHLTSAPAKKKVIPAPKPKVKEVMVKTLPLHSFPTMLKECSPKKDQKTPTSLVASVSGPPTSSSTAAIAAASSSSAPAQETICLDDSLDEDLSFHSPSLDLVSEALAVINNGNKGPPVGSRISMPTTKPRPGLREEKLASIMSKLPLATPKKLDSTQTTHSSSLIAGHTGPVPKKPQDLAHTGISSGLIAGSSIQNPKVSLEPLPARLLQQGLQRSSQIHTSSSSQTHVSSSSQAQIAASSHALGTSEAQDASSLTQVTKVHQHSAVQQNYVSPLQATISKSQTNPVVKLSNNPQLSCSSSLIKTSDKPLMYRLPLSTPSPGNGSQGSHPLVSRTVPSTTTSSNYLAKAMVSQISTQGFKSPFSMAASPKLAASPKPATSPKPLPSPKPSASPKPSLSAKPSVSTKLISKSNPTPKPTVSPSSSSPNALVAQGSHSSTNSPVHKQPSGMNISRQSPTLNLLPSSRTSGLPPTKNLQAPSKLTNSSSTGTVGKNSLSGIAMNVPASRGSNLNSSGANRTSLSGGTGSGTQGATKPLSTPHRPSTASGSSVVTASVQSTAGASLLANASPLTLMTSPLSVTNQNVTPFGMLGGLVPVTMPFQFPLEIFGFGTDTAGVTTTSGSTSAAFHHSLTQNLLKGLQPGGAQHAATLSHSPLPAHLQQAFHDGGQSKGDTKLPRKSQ
UniProt Q9UMX0, whole entry, looked up: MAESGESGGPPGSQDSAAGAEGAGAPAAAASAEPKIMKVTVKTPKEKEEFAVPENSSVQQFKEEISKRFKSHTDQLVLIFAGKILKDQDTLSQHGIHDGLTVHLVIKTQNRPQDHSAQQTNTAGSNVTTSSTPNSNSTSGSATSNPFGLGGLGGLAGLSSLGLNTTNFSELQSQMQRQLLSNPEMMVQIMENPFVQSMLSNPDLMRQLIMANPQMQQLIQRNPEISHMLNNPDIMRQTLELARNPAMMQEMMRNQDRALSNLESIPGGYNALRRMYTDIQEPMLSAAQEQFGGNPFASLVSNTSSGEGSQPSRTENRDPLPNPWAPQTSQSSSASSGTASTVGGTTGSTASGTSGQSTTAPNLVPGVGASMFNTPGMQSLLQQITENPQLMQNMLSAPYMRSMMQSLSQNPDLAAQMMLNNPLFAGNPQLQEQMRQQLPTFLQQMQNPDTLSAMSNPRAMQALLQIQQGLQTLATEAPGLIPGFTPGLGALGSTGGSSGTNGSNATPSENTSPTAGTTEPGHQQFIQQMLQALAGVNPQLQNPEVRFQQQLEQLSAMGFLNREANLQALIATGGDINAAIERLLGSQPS
UniProt O15042: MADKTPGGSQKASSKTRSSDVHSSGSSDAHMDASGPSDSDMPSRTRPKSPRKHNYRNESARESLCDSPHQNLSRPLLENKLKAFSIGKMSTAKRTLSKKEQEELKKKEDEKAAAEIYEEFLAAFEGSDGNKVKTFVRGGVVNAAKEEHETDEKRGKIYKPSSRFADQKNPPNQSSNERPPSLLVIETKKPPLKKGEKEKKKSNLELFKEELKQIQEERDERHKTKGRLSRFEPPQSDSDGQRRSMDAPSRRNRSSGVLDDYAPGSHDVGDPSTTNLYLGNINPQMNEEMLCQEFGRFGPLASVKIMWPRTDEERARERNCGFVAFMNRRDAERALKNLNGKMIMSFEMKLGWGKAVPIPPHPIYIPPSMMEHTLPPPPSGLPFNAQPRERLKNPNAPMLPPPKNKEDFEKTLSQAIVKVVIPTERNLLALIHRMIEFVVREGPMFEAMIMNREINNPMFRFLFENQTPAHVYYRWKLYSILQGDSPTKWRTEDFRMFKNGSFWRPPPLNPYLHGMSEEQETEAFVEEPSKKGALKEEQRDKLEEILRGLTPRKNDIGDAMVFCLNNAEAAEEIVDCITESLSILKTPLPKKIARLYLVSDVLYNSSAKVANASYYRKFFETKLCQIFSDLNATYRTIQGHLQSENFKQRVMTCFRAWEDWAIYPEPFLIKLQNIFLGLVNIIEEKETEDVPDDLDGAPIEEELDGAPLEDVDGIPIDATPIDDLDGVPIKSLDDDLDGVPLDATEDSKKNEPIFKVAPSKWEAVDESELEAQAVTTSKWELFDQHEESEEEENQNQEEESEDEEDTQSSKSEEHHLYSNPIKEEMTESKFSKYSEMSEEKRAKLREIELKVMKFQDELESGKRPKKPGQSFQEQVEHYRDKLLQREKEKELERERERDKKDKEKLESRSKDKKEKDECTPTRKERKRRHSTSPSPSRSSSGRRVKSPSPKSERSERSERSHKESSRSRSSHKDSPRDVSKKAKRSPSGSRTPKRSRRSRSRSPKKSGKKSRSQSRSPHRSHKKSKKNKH

The list shows a part of the results.

Compound in one experiment: CN1CC[C@H](c2c(O)cc(O)c3c(=O)cc(-c4ccccc4Cl)oc23)[C@H](O)C1 [alvocidib]
The experiment is described as follows: log2 fold change, soluble protein after heating vs DMSO (PISA); higher = thermal stabilisation; K562 lysate, 10 uM; active = over 0.2 and 3.5 SD of the protein, either way, in both replicates (recomputed). Put shortly: (§1)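 K562 pellets were dounce-homogenised in PBS pH 7.4 containing 1 mM MgCl2, and the crude extract, at 1 mg/mL protein, was exposed to 10 μM compound for 30 min. Aliquots were heated for 3 min across 48°C-58°C, pooled, brought to 0.5% NP-40 at 4°C and spun at 21,000xg for 90 min, with the supernatant taken as soluble protein. TMTpro 16plex LC-MS/MS with equalised channel sums quantified that protein. Values are log-two fold changes in thermal stability relative to solvent controls, taken from duplicates.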
TXNDC2 (UniProt Q86VQ3): the log2 fold change was inactive: -0.003.
Still for that read-out and setting: with UBN1 (UniProt Q9NPG3) the figure was inactive: -0.176.
As for UBE2O (UniProt K7ES11), the log2 fold change is inactive: 0.367.
Still for that read-out and setting: with TUBB8B (UniProt A6NNZ2) the figure was inactive: -0.026; with TUBB2B (UniProt Q9BVA1), inactive: 0.006.
The same measure, in the same setting: the figure for TYRO3 (UniProt Q06418) is inactive: -0.04; for UBE2L5, A0A1B0GUS4 it is inactive: -0.198; for U2AF2 (UniProt K7ELP8) it is inactive: -0.069.
Still for that read-out and setting: the figure for UBA52 (UniProt P62987) is inactive: -0.057; for TUBA8 (UniProt Q9NY65) it is inactive: -0.21.
On to TYW5 (UniProt A2RUC4), for which the log2 fold change is inactive: -0.034.
With TXNRD3 (UniProt Q86VQ6), the log2 fold change is inactive: -0.079.
On the same count and under the same terms, with UBE2I (UniProt H3BQQ9) the figure was inactive: 0.331; with TUBGCP5 (UniProt Q96RT8), inactive: -0.069.
On the same count and under the same terms, with UBA7 (UniProt P41226) the figure was inactive: -0.018; with TXNRD1 isoform 7 (UniProt Q16881), inactive: -0.158.

Compound in the next experiment: CN1CCc2c(c3ccccc3n2Cc2ccc(C(=O)NO)cc2)C1 [Tubastatin A]
The description is as above. In a few lines:
as §1
Consider TXNDC2 (UniProt Q86VQ3), for which the log2 fold change was inactive: 0.084.
Same read-out and setting: the figure for TUBB8B (UniProt A6NNZ2) is inactive: -0.171; for TYRO3 (UniProt Q06418) it is inactive: -0.139.
Take UBE2L5, A0A1B0GUS4: the log2 fold change was inactive: -0.102.
Turning to UBN2 (UniProt Q6ZU65), the log2 fold change is inactive: -0.112.
Same read-out and setting: the figure for UBQLN1 isoform 2 (UniProt Q9UMX0) is inactive: 0.101.
Regarding TXNRD2 isoform 3 (UniProt Q9NNW7), the log2 fold change was inactive: 0.072.
The same measure, in the same setting: the figure for UBE2I (UniProt H3BQQ9) is inactive: -0.077.
With TULP3 isoform 2 (UniProt O75386), the log2 fold change was inactive: -0.189.
With UBR4 isoform 4 (UniProt Q5T4S7), the log2 fold change was inactive: -0.337.
On the same count and under the same terms, the figure for TUBGCP5 (UniProt Q96RT8) is inactive: -0.128; for TXNRD1 isoform 7 (UniProt Q16881) it is inactive: 0.205.
As for UBAP2L isoform 1 (UniProt Q14157), the log2 fold change is inactive: -0.006.

Compound in the next experiment: CNC(=O)C1=CC=CC=C1NC2=NC(=NC=C2Cl)NC3=C(C=C(C=C3)N4CCOCC4)OC
The description is as above. Put shortly:
as §1
Consider TXNDC2 (UniProt Q86VQ3), for which the log2 fold change is inactive: 0.055.
Same read-out and setting: the figure for U2SURP isoform 2 (UniProt O15042) is inactive: 0.131; for UBA2 (UniProt U3KQ93) it is inactive: 0.063.
On the same count and under the same terms, the figure for UBE2L5, A0A1B0GUS4 is inactive: -0.038.
The same measure, in the same setting: the figure for UBE2K (UniProt D6RDM7) is inactive: 0.035; for UBN2 (UniProt Q6ZU65) it is inactive: -0.004.
Turning to UBQLN1 isoform 2 (UniProt Q9UMX0), the log2 fold change was inactive: 0.028.
Same read-out and setting: with TXNRD2 isoform 3 (UniProt Q9NNW7) the figure was inactive: 0.194; with UBE2W isoform 3 (UniProt Q96B02), inactive: -0.115; with TYK2 (UniProt P29597), inactive: -0.237.
On the same count and under the same terms, with UBA52 (UniProt P62987) the figure was inactive: 0.147.
The same measure, in the same setting: with TUBA8 (UniProt Q9NY65) the figure was inactive: 0.01.
For the target UBQLN1 (UniProt H0YEZ9), the log2 fold change was inactive: 0.078.
Same read-out and setting: the figure for TYW5 (UniProt A2RUC4) is inactive: 0.125.
Same read-out and setting: with TXNRD3 (UniProt Q86VQ6) the figure was inactive: -0.081.
Same read-out and setting: the figure for TTYH3 isoform 4 (UniProt Q9C0H2) is inactive: 0.012.
On to TULP3 isoform 2 (UniProt O75386), for which the log2 fold change is inactive: 0.087.
Same read-out and setting: the figure for UBR4 isoform 4 (UniProt Q5T4S7) is inactive: -0.16; for UBA7 (UniProt P41226) it is inactive: 0.018.

Compound in a further experiment: CNC(=O)c1ccc(Nc2ncc(C(F)(F)F)c(NCc3nccnc3N(C)S(C)(=O)=O)n2)cc1 [defactinib]
The experiment is described as above. In a few lines: as §1
For the target U2SURP isoform 2 (UniProt O15042), the log2 fold change is inactive: -0.034.
On the same count and under the same terms, the figure for UBN1 (UniProt Q9NPG3) is inactive: -0.044.
Still for that read-out and setting: the figure for TUBB8B (UniProt A6NNZ2) is inactive: -0.02; for TYRO3 (UniProt Q06418) it is inactive: 0.22; for UBE2K (UniProt D6RDM7) it is inactive: -0.178.
Same read-out and setting: with UBN2 (UniProt Q6ZU65) the figure was inactive: 0.038; with U2AF2 (UniProt K7ELP8), inactive: 0.029; with UBQLN1 isoform 2 (UniProt Q9UMX0), inactive: 0.346.
For UBE2W isoform 3 (UniProt Q96B02), the log2 fold change was inactive: -0.01.
Still for that read-out and setting: with UBE2I (UniProt H3BQQ9) the figure was inactive: -0.027.
TULP3 isoform 2 (UniProt O75386): the log2 fold change was inactive: 0.106.
On the same count and under the same terms, with UBAP2L (UniProt F8W726) the figure was inactive: 0.06; with UBR4 isoform 4 (UniProt Q5T4S7), inactive: -0.032.
The same measure, in the same setting: the figure for TUBGCP5 (UniProt Q96RT8) is inactive: -0.159.
Same read-out and setting: the figure for TXNRD1 isoform 7 (UniProt Q16881) is inactive: -0.024.

Compound in the next experiment: CNc1nc(-c2ccc3c(N)n[nH]c3c2)cc(N2C[C@@H](C(=O)NC3CCCCC3)CC[C@H]2C)n1
Described as above. Put shortly:
as §1
As for U2SURP isoform 2 (UniProt O15042), the log2 fold change is inactive: 0.047.
Still for that read-out and setting: the figure for UBN1 (UniProt Q9NPG3) is inactive: -0.076; for TUBB8B (UniProt A6NNZ2) it is inactive: 0.003; for TUBB2B (UniProt Q9BVA1) it is inactive: -0.184.
The same measure, in the same setting: with UBN2 (UniProt Q6ZU65) the figure was inactive: 0.147; with UBQLN1 isoform 2 (UniProt Q9UMX0), inactive: -0.009; with TXNDC9 isoform 2 (UniProt O14530), inactive: -0.067.
Still for that read-out and setting: with TUBA8 (UniProt Q9NY65) the figure was inactive: 0.024; with UBE2I (UniProt H3BQQ9), inactive: 0.174; with TULP3 isoform 2 (UniProt O75386), inactive: 0.053.
As for UBR4 isoform 4 (UniProt Q5T4S7), the log2 fold change was inactive: 0.144.
The same measure, in the same setting: with TUBGCP5 (UniProt Q96RT8) the figure was inactive: -0.055.
Still for that read-out and setting: with TXNRD1 isoform 7 (UniProt Q16881) the figure was inactive: 0.535.
